Reference: the supplement of paper PMC12823440, “Inhibitors supercharge kinase turnover through native proteolytic circuits” (Nature, 2025)
Where a name gives a salt, the structure may show the parent alone. The list shows a part of the results. The calls rarely recur for the same compound in another form.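 In K562 cells expressing nanoluciferase-fused kinases, luminescence was recorded at 4 h intervals between 2 and 18 h, normalized as percent of control with DMSO at 100% and a positive control at 0%. A significant (2 sigma) signal drop marks a time point as decreased. The authors' rule for a hit is not shown and takes in more than the number of time points.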

Protein sequences, listed by entry. Tags and fused reporters are not part of them. Lines headed by an entry give the natural chain unless they say otherwise; changes in a name come on top.
UniProt P07947, whole entry, looked up: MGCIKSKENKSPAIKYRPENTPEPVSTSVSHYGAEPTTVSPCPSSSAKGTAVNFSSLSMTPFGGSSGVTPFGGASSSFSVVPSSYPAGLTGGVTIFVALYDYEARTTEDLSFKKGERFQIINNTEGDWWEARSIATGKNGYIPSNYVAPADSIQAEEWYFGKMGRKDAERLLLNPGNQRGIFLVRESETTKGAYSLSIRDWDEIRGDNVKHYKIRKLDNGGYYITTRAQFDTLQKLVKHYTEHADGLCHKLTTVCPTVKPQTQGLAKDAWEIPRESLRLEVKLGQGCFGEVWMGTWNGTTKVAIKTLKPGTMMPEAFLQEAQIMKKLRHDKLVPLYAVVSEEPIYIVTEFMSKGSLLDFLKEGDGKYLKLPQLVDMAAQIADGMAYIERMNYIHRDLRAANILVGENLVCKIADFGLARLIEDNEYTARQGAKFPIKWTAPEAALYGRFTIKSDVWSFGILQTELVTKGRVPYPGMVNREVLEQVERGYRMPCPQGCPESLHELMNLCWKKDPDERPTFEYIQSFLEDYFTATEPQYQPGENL
UniProt P43403: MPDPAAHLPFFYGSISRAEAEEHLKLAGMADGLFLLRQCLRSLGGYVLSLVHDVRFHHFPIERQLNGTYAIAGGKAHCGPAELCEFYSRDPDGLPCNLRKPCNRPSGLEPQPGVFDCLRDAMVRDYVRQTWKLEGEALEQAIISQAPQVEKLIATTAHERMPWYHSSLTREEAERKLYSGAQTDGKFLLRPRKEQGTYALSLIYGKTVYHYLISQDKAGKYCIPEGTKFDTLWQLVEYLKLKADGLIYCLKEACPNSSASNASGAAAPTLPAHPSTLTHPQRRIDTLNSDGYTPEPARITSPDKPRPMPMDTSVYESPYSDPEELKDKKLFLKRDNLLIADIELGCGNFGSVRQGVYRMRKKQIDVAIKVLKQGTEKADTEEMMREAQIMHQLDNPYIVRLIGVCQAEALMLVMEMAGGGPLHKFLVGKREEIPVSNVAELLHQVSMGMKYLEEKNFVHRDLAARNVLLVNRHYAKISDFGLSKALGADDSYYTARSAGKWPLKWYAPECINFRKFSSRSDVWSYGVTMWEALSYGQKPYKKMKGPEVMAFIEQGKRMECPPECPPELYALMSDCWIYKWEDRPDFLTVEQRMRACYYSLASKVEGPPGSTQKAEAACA
UniProt P11802: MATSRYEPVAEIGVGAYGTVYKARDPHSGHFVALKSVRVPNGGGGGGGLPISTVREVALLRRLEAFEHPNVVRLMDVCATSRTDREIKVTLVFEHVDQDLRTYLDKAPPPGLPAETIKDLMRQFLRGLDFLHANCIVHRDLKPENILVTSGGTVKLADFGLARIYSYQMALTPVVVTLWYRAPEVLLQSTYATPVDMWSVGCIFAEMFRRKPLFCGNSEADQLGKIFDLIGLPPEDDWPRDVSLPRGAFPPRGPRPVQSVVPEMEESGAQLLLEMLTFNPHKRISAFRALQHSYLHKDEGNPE
UniProt P50613: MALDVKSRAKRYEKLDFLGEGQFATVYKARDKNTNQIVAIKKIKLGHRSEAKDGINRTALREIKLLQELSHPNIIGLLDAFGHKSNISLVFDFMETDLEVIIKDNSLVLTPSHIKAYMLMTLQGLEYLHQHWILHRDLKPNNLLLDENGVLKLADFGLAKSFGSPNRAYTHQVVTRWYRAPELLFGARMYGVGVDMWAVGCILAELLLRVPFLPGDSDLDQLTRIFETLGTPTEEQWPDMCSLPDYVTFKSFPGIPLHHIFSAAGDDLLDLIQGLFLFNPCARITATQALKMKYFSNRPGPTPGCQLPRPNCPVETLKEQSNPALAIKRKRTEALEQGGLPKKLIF
UniProt P50750, whole entry: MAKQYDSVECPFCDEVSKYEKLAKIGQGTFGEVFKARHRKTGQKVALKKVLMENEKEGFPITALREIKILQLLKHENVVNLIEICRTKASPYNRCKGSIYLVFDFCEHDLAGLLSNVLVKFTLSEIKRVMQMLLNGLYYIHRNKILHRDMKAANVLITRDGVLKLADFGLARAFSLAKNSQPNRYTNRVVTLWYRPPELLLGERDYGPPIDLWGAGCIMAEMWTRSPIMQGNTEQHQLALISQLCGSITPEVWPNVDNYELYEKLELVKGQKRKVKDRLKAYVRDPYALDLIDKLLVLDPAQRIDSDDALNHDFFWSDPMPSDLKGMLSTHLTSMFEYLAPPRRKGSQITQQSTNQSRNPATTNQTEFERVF

What was measured:
Settings in all cases: K562; 2-18 h
YES1 = YES1 (UniProt P07947); assay: number of time points (of 5) at which kinase-Nluc abundance scored as decreased, DMSO-normalised (count); higher = more persistent destabilization
ZAK = ZAK (UniProt Q9NYL2); assay: as above
ZAP70 = ZAP70 (UniProt P43403); assay: as above
CDK4 = CDK4 (UniProt P11802); assay: number of time points (of 4; 2 h point missing) at which kinase-Nluc abundance scored as decreased, DMSO-normalised (count); higher = more persistent destabilization
CDK7 = CDK7 (UniProt P50613); assay: as above
CDK9 = CDK9 (UniProt P50750); assay: as above

| SMILES | number of time points (YES1) | number of time points (ZAK) | number of time points (ZAP70) | number of time points (CDK4) | number of time points (CDK7) | number of time points (CDK9) |
| --- | --- | --- | --- | --- | --- | --- |
| COc1ccc(/C=C/c2cc(OC)c(OC)c(OC)c2)cc1 (2.5 µM) | 1 | 1 | 0 | 0 | 1 | 0 |
| C/C(O)=C(\C#N)C(=O)Nc1cc(Br)ccc1Br (10 µM) | 0 | 0 | 0 | 0 | 0 | 0 |
| CC1C(=O)OC2C(O)C34C5OC(=O)C3(OC3OC(=O)C(O)C34C(C(C)(C)C)C5O)C12O (configuration not stated) [Ginkgolide C] (10 µM) | 0 | 0 | 0 | 0 | 0 | 0 |
| Cc1n[nH]cc1-c1cc2nc([C@@H]3CC4CCN3CC4)[nH]c(=O)c2s1 [Simurosertib] (2.5 µM) | 0 | 0 | 0 | 0 | 0 | 0 |
| O=C1C=CC[C@@H]2[C@H]3CCCN4CCC[C@@H](CN12)[C@@H]34 [Sophocarpine] (10 µM) | 0 | 0 | 0 | 0 | 0 | 0 |
| CC(=O)OC(C)(C)/C=C/C(=O)[C@](C)(O)[C@H]1[C@H](O)C[C@@]2(C)[C@@H]3CC=C4[C@@H](C=C(O)C(=O)C4(C)C)[C@]3(C)C(=O)C[C@]12C [Cucurbitacin E] (2.5 µM) | 1 | 0 | 0 | 0 | 0 | 1 |
| CC(=O)Oc1ccc(/C=C/c2cc(OC(C)=O)cc(OC(C)=O)c2)cc1 [Triacetylresveratrol] (10 µM) | 0 | 0 | 0 | 0 | 0 | 0 |
| Cc1[nH]ncc1-c1cc2nc([C@H]3CC4CCN3CC4)[nH]c(=O)c2s1 [(R)-Simurosertib] (10 µM) | 0 | 0 | 0 | 0 | 0 | 0 |
| N#CC(C#N)=Cc1ccc(O)c(O)c1 [Tyrphostin 23] (10 µM) | 0 | 0 | 0 | 0 | 0 | 0 |
| O=C(/C=C/c1ccccc1)OC[C@H]1O[C@@H](O[C@@H]2OC=C[C@H]3[C@H](O)[C@@H]4O[C@]4(CO)[C@@H]23)[C@H](O)[C@@H](O)[C@@H]1O [Picroside I] (10 µM) | 0 | 0 | 0 | 0 | 0 | 0 |
| O=c1[nH]c2ccccc2n1C1CCN(Cc2ccc(-c3[nH]c4cc5ncnc5cc4nc3-c3ccccc3)cc2)CC1 [AKT inhibitor VIII] (2.5 µM) | 0 | 0 | 0 | 0 | 0 | 0 |
| CC(C)(C)c1cc(C=C(C#N)C#N)cc(Br)c1O (2.5 µM) | 0 | 0 | 0 | 0 | 0 | 0 |
| NCCc1cn(S(=O)(=O)c2c(Cl)nc3sccn23)c2ccccc12 (10 µM) | 0 | 0 | 0 | 0 | 0 | 0 |
| CCCCNc1nc(N)c2[nH]c(=O)n(Cc3ccc(C)nc3)c2n1 (10 µM) | 0 | 0 | 0 | 0 | 0 | 0 |
| O=Cc1cn(Cc2ccc(Cl)cc2)c2ccccc12 [Oncrasin-1] (10 µM) | 0 | 0 | 0 | 0 | 0 | 0 |
| COc1ccc2c(c[n+](C)c3c4cc5c(cc4ccc23)OCO5)c1OC [Chelerythrine (chloride)] (10 µM) | 0 | 4 | 0 | 0 | 0 | 0 |
| C[C@H](Nc1ncnc2[nH]cnc12)c1nc2ccc(F)cc2c(=O)n1-c1ccccc1 [Acalisib] (10 µM) | 0 | 0 | 0 | 0 | 0 | 0 |
| CN(C)C(=O)c1ccc(Cn2c(C(=O)O)cc3c(Br)cc(Sc4ccc(Cl)c(Cl)c4)cc32)cc1 [Rheb inhibitor NR1] (10 µM) | 0 | 0 | 0 | 0 | 0 | 0 |
| CC1=C[C@]23C(=O)[C@@H](C=C(CO)[C@@H](O)[C@]2(O)[C@H]1O)[C@H]1[C@@H](C[C@H]3C)C1(C)C [Ingenol] (10 µM) | 0 | 0 | 0 | 0 | 0 | 0 |

| SMILES | number of time points (YES1) | number of time points (ZAK) | number of time points (ZAP70) | number of time points (CDK4) | number of time points (CDK7) | number of time points (CDK9) |
| --- | --- | --- | --- | --- | --- | --- |
| Nc1ncnc2c1ncn2[C@@H]1O[C@@H]2COP(O)(=S)O[C@H]2[C@H]1O (some centres not stated) [Sp-cAMPS (sodium salt)] (10 µM) | 0 | 0 | 0 | 0 | 0 | 0 |
| C[C@H]1CC[C@]2(NC1)O[C@H]1C[C@H]3[C@@H]4CC[C@H]5C[C@@H](O)CC[C@]5(C)[C@H]4CC[C@]3(C)[C@H]1[C@@H]2C [Tomatidine (hydrochloride)] (10 µM) | 0 | 0 | 0 | 0 | 0 | 0 |
| O=C1C=CC[C@@H]2[C@H]3CCCN4CCC[C@@H](CN12)[C@@H]34 [Sophocarpine (monohydrate)] (2.5 µM) | 0 | 0 | 0 | 0 | 0 | 0 |
| Cc1ccccc1-n1c(Cn2cnc3c(N)ncnc32)nc2cccc(C)c2c1=O (10 µM) | 0 | 0 | 0 | 0 | 0 | 0 |
| O=C(O)c1nn(Cc2ccc(Cl)cc2Cl)c2ccccc12 [Lonidamine] (10 µM) | 0 | 0 | 0 | 0 | 0 | 0 |
| O=C1c2ccccc2C(=O)c2c1cccc2-c1cnn(C2CCNCC2)c1 [PDK4-IN-1 (hydrochloride)] (10 µM) | 0 | 0 | 0 | 0 | 0 | 0 |
| C[C@H]1CC[C@]2(NC1)O[C@H]1C[C@H]3[C@@H]4CC[C@H]5C[C@@H](O)CC[C@]5(C)[C@H]4CC[C@]3(C)[C@H]1[C@@H]2C [Tomatidine] (2 µM) | 0 | 0 | 0 | 0 | 0 | 0 |
| COc1ccc2c(c1)/C(=C/c1cnc[nH]1)C(=O)N2 (2.5 µM) | 0 | 0 | 0 | 0 | 0 | 0 |
| CC(=O)O[C@H]1[C@H]2[C@@H](OC(=O)Cc3ccccc3)[C@@H](C)C[C@]2(OC(C)=O)C(=O)/C(C)=C/[C@@H]2[C@H](CC[C@@]13CO3)C2(C)C [Euphorbiasteroid] (10 µM) | 0 | 0 | 0 | 0 | 0 | 0 |
| CC(=O)c1c(O)c(C)c(O)c(Cc2c(O)c3c(c(C(=O)/C=C/c4ccccc4)c2O)OC(C)(C)C=C3)c1O [Rottlerin] (2 µM) | 0 | 0 | 0 | 0 | 0 | 0 |
| CCOC(=O)c1c(/C(C#N)=C\N)c2ccc(Cl)c(Cl)c2n1C (10 µM) | 0 | 0 | 0 | 0 | 0 | 0 |
| C[C@@H]1CC[C@H]2[C@@H](C)C(=O)O[C@@H]3O[C@@]4(C)CC[C@@H]1[C@]32OO4 [Artemisinin] (10 µM) | 0 | 0 | 0 | 0 | 0 | 0 |
| CCCCCCCCCCCCCCCCOC[C@H](COP(=O)([O-])OCC[N+](C)(C)C)OC(C)=O (10 µM) | 0 | 0 | 0 | 0 | 0 | 0 |
| N#CC(C#N)=Cc1ccc([N+](=O)[O-])c(O)c1 (10 µM) | 0 | 0 | 0 | 0 | 0 | 0 |
| C=C[C@H]1CN2CC[C@]3(C(=O)Nc4ccccc43)[C@@H]2C[C@@H]1/C(=C\OC)C(=O)OC [Corynoxeine] (2 µM) | 0 | 0 | 0 | 0 | 0 | 0 |
| O=c1cc(O)c2ccccc2o1 [4-Hydroxycoumarin] (10 µM) | 0 | 0 | 0 | 0 | 0 | 0 |
| C[C@H]1CC[C@]2(NC1)O[C@H]1C[C@H]3[C@@H]4CC[C@H]5C[C@@H](O[C@@H]6O[C@H](CO)[C@H](O[C@@H]7O[C@H](CO)[C@@H](O)[C@H](O[C@@H]8OC[C@@H](O)[C@H](O)[C@H]8O)[C@H]7O[C@@H]7O[C@H](CO)[C@@H](O)[C@H](O)[C@H]7O)[C@H](O)[C@H]6O)CC[C@]5(C)[C@H]4CC[C@]3(C)[C@H]1[C@@H]2C [Tomatine] (2.5 µM) | 4 | 0 | 0 | 0 | 3 | 1 |
| CCN1CCN(C(=O)Cc2ccc(Nc3ncc(F)c(Nc4ccc(C(=O)Nc5ccccc5Cl)cc4)n3)cc2)CC1 (2.5 µM) | 0 | 0 | 0 | 0 | 0 | 0 |
| O=[N+]([O-])/C=C/c1ccc2c(c1)OCO2 (2.5 µM) | 0 | 0 | 0 | 0 | 0 | 0 |

| SMILES | number of time points (YES1) | number of time points (ZAK) | number of time points (ZAP70) | number of time points (CDK4) | number of time points (CDK7) | number of time points (CDK9) |
| --- | --- | --- | --- | --- | --- | --- |
| Cc1ccccc1-n1c(Cn2ncc3c(N)ncnc32)nc2cccc(C)c2c1=O (10 µM) | 0 | 0 | 0 | 0 | 0 | 0 |
| C=CC(=O)N[C@H]1C=C(C)c2c(-c3cnc4ccccc4c3)c3c(N)ncnc3n2C1 (10 µM) | 0 | 0 | 0 | 0 | 0 | 0 |
| O=C(O)c1sc2cc(Cl)ccc2c1Cl (10 µM) | 0 | 0 | 0 | 0 | 0 | 0 |
| COC[C@H]1OC(=O)c2coc3c2[C@@]1(C)C1=C(C3=O)[C@@H]2CCC(=O)[C@@]2(C)C[C@H]1OC(C)=O [Wortmannin] (2.5 µM) | 0 | 0 | 0 | 0 | 3 | 0 |
| N#CC(C#N)=NNc1cccc(Cl)c1 (2.5 µM) | 0 | 0 | 0 | 0 | 2 | 0 |
| Cn1cc(C2=C(c3cn(C4CCN(Cc5ccccn5)CC4)c4ccccc34)C(=O)NC2=O)c2ccccc21 [Enzastaurin] (10 µM) | 0 | 0 | 0 | 0 | 0 | 0 |
| C=CC(=O)Nc1ccc2[nH]c(=O)n(C3CCN(Cc4ccc(-c5nc6cc[nH]c(=O)c6cc5-c5ccccc5)cc4)CC3)c2c1 [Borussertib] (10 µM) | 0 | 0 | 0 | 0 | 0 | 0 |
| C[C@H](CCC(=O)O)C[C@H](C)C[C@H](C)C(=O)/C=C(\O)[C@H](C)C[C@H](C)C/C=C/[C@@H](C)[C@@H](O)[C@@H](C)[C@@H](O)C[C@@H]1CC[C@@](C)([C@H]2CC[C@@](C)([C@@H](C)O)O2)O1 [Ionomycin (calcium)] (2.5 µM) | 0 | 0 | 0 | 0 | 0 | 0 |
| C/C=C(/C)C(=O)O[C@H]1[C@@H]2[C@H](C)C(=O)O[C@@H]2C[C@@H](C)[C@@H]2C=CC(=O)[C@]21C [Brevilin A] (2.5 µM) | 0 | 0 | 0 | 0 | 0 | 0 |
| COc1ccc2c(c1)[nH]c1c(C)nccc12 [Harmine] (10 µM) | 0 | 0 | 0 | 0 | 0 | 0 |
| COc1ccc(N(C(=O)Oc2c(C)cccc2C)c2ccnc(Nc3ccc(N4CCN(C)CC4)cc3)n2)c(OC)c1 (2.5 µM) | 0 | 0 | 0 | 0 | 0 | 0 |
| O=c1ccc2cc(O[C@@H]3O[C@H](CO)[C@@H](O)[C@H](O)[C@H]3O)c(O)cc2o1 [Esculin] (10 µM) | 0 | 0 | 0 | 0 | 0 | 0 |
| COc1cc2c(cc1F)C(c1ccccc1Cl)=Nc1c(n[nH]c1C)N2 (0.5 µM) | 0 | 0 | 0 | 0 | 0 | 0 |
| O=C(N[C@@H](COc1ccc2[nH]c(=O)[nH]c2c1)c1ccccc1)c1cccn(Cc2ccc(F)c(F)c2)c1=O (2.5 µM) | 0 | 0 | 0 | 0 | 0 | 0 |
| C[S+]([O-])/C=C/CCN=C=S (configuration not stated) [Sulforaphene] (10 µM) | 0 | 0 | 0 | 0 | 0 | 0 |
| CC(C)=CC[C@@H](OC(=O)CC(C)(C)O)C1=CC(=O)c2c(O)ccc(O)c2C1=O [β-Hydroxyisovalerylshikonin] (2.5 µM) | 0 | 0 | 0 | 0 | 0 | 0 |
| O=c1[nH]c2ccccc2n1C1CCN(CCCC(c2ccc(F)cc2)c2ccc(F)cc2)CC1 [Pimozide] (2.5 µM) | 0 | 0 | 0 | 0 | 0 | 0 |
| COc1ccc2c(c1OC)C(OC)N(C)c1c-2ccc2cc3c(cc12)OCO3 (configuration not stated) [Angoline] (10 µM) | 0 | 0 | 0 | 0 | 0 | 0 |
| CCCS(=O)(=O)Nc1ccc(F)c(-n2cc(-c3cncnc3)c3nc(N(C)C4CCN(CC)CC4)ccc32)c1F (2 µM) | 0 | 0 | 0 | 0 | 0 | 0 |

Some values from the results shown.
Cc1ccccc1-n1c(Cn2ncc3c(N)ncnc32)nc2cccc(C)c2c1=O (10 µM) | number of time points (YES1): 0
O=C(N[C@@H](COc1ccc2[nH]c(=O)[nH]c2c1)c1ccccc1)c1cccn(Cc2ccc(F)c(F)c2)c1=O (2.5 µM) | number of time points (CDK7): 0
